{"source": "PubChem BioAssay AID256", "about": "(DTP/NCI, 2004)", "system": "CD2F1 mice, L1210 leukemia ip, survival T/C", "test": "NCI In Vivo Anticancer Drug Screen. Data for tumor model L1210 Leukemia (intraperitoneal) in CD2F1 (CDF1) mice", "details": "higher T/C = longer survival", "how_it_was_run": "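Implant tumor; dose compound or vehicle; measure endpoint in both groups; report treated divided by control.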", "key": {"[1]": {"details": "T/C endpoint: median survival time, dose: 6.0 mg/kg/injection, schedule: Q01DX009 (ip), vehicle: saline"}}, "note": "The list does not hold the whole screen: it gathers tests that were run many times, whatever their T/C, doses with no T/C, and many T/C values between a quarter and a half above the control. Other doses and runs of a compound stand elsewhere. T/C: endpoint of the treated group in % of that of the vehicle group. Some doses have a count of surviving animals in place of a T/C: the source holds a T/C of zero for them, seemingly a mark for toxic or unscored doses. Some doses without a T/C left all or most animals alive at the check, yet need not have been tolerated: survival well below the control is almost never listed, so the zero probably covers shortened survival too. Survivors were counted at the toxicity check, usually on the fifth day, unless a day is given; later deaths do not show. Schedule codes are those of the source, taken here to give the interval after Q, in days (D) or hours (H), and the number of doses after X. Brackets with × give the number of equal values in this list. Where survival is the endpoint, this PubChem deposit counts one and a half times the control or more as active, and values a quarter to a half above the control carry no call in these data; other NCI protocols may use other cut-offs. Some entries were tested several times; their values stand side by side, smallest first. Some T/C values are followed by the survivors on the day toxicity was checked, most often the fifth; where none is given, no animal had died by that day.", "data": [{"compound": "Nc1ncn(C2OC(CO)C(O)C2O)c(=O)n1", "note": "(stereo unspecified)", "values": [{"measurement": "T/C", "setting": "T/C endpoint: mean survival time, dose: 100.0 mg/kg/injection, schedule: Q04DX003 (ip), vehicle: saline, evaluated on day 30", "result": "164, 175, 182 % of control"}, {"measurement": "T/C", "setting": "T/C endpoint: mean survival time, dose: 100.0 mg/kg/injection, schedule: Q04DX003 (ip), vehicle: saline, evaluated on day 50", "result": "166 % of control"}, {"measurement": "T/C", "setting": "T/C endpoint: mean survival time, dose: 200.0 mg/kg/injection, schedule: Q01DX009 (ip), vehicle: saline, evaluated on day 30", "result": "119, 188, 243 % of control"}, {"measurement": "T/C", "setting": "T/C endpoint: mean survival time, dose: 200.0 mg/kg/injection, schedule: Q01DX009 (ip), vehicle: saline, evaluated on day 50", "result": "174 % of control"}, {"measurement": "T/C", "setting": "T/C endpoint: median survival time, dose: 0.37 mg/kg/injection, schedule: Q01DX009 (ip), vehicle: saline", "result": "135 % of control"}, {"measurement": "T/C", "setting": "T/C endpoint: median survival time, dose: 0.63 mg/kg/injection, schedule: Q01DX009 (ip), vehicle: saline", "result": "147 % of control"}, {"measurement": "T/C", "setting": "T/C endpoint: median survival time, dose: 1.56 mg/kg/injection, schedule: Q01DX009 (ip), vehicle: other", "result": "148 % of control"}, {"measurement": "T/C", "setting": "T/C endpoint: median survival time, dose: 1.56 mg/kg/injection, schedule: Q01DX009 (ip), vehicle: saline", "result": "142 % of control"}, {"measurement": "T/C", "setting": "T/C endpoint: median survival time, dose: 2.0 mg/kg/injection, schedule: Q01DX009 (oral), vehicle: saline", "result": "125 % of control"}, {"measurement": "T/C", "setting": "T/C endpoint: median survival time, dose: 3.75 mg/kg/injection, schedule: Q04DX003 (ip), vehicle: saline", "result": "134 % of control"}, {"measurement": "T/C", "setting": "T/C endpoint: median survival time, dose: 4.0 mg/kg/injection, schedule: Q01DX009 (oral), vehicle: saline", "result": "143 % of control"}, {"measurement": "T/C", "setting": "T/C endpoint: median survival time, dose: 4.0 mg/kg/injection, schedule: Q04DX003 (ip), vehicle: saline", "result": "131 % of control"}, {"measurement": "survivor count", "setting": "T/C endpoint: median survival time, dose: 6.0 mg/kg/injection, schedule: Q01DX009 (ip), vehicle: clinical formulation", "result": "10 of 10"}, {"measurement": "T/C", "setting": "[1]", "result": "134 % of control"}, {"measurement": "survivor count", "setting": "[1]", "result": "10 of 10"}, {"measurement": "T/C", "setting": "T/C endpoint: median survival time, dose: 8.0 mg/kg/injection, schedule: Q01DX009 (ip), vehicle: saline", "result": "137 % of control"}, {"measurement": "survivor count", "setting": "T/C endpoint: median survival time, dose: 12.0 mg/kg/injection, schedule: Q01DX009 (ip), vehicle: clinical formulation", "result": "10 of 10"}, {"measurement": "survivor count", "setting": "T/C endpoint: median survival time, dose: 12.0 mg/kg/injection, schedule: Q01DX009 (ip), vehicle: saline", "result": "10 of 10 (2×)"}, {"measurement": "T/C", "setting": "T/C endpoint: median survival time, dose: 12.5 mg/kg/injection, schedule: Q01DX009 (ip), vehicle: saline, evaluated on day 30", "result": "213 and 233 % of control"}, {"measurement": "T/C", "setting": "T/C endpoint: median survival time, dose: 12.5 mg/kg/injection, schedule: Q01DX009 (ip), vehicle: saline, evaluated on day 60", "result": "215 and 220 % of control"}, {"measurement": "survivor count", "setting": "T/C endpoint: median survival time, dose: 16.0 mg/kg/injection, schedule: Q01DX009 (ip), vehicle: saline", "result": "5 of 6"}, {"measurement": "T/C", "setting": "T/C endpoint: median survival time, dose: 18.7 mg/kg/injection, schedule: Q04DX003 (ip), vehicle: DMSO", "result": "145 % of control"}, {"measurement": "survivor count", "setting": "T/C endpoint: median survival time, dose: 24.0 mg/kg/injection, schedule: Q01DX009 (ip), vehicle: clinical formulation", "result": "1 of 10"}, {"measurement": "survivor count", "setting": "T/C endpoint: median survival time, dose: 24.0 mg/kg/injection, schedule: Q01DX009 (ip), vehicle: saline", "result": "1 of 10"}, {"measurement": "T/C", "setting": "T/C endpoint: median survival time, dose: 25.0 mg/kg/injection, schedule: Q01DX009 (ip), vehicle: saline, evaluated on day 30", "result": "247 and 263 % of control"}, {"measurement": "T/C", "setting": "T/C endpoint: median survival time, dose: 25.0 mg/kg/injection, schedule: Q01DX009 (ip), vehicle: saline, evaluated on day 60", "result": "255 and 274 % of control"}, {"measurement": "survivor count", "setting": "T/C endpoint: median survival time, dose: 32.0 mg/kg/injection, schedule: Q01DX005 (ip), vehicle: saline", "result": "0 of 6"}, {"measurement": "survivor count", "setting": "T/C endpoint: median survival time, dose: 32.0 mg/kg/injection, schedule: Q01DX009 (ip), vehicle: saline", "result": "3 of 6"}, {"measurement": "T/C", "setting": "T/C endpoint: median survival time, dose: 32.0 mg/kg/injection, schedule: Q04DX003 (ip), vehicle: saline", "result": "140 % of control"}, {"measurement": "T/C", "setting": "T/C endpoint: median survival time, dose: 37.5 mg/kg/injection, schedule: Q03HX024 (ip), vehicle: DMSO", "result": "134 % of control"}, {"measurement": "T/C", "setting": "T/C endpoint: median survival time, dose: 50.0 mg/kg/injection, schedule: Q01DX009 (ip), vehicle: saline, evaluated on day 30", "result": "270 and 278 % of control"}, {"measurement": "T/C", "setting": "T/C endpoint: median survival time, dose: 50.0 mg/kg/injection, schedule: Q01DX009 (ip), vehicle: saline, evaluated on day 60", "result": "268 and 304 % of control"}, {"measurement": "T/C", "setting": "T/C endpoint: median survival time, dose: 56.2 mg/kg/injection, schedule: Q01DX001 (iv), vehicle: DMSO", "result": "136 % of control"}, {"measurement": "survivor count", "setting": "T/C endpoint: median survival time, dose: 64.0 mg/kg/injection, schedule: Q01DX005 (ip), vehicle: saline", "result": "0 of 6"}, {"measurement": "T/C", "setting": "T/C endpoint: median survival time, dose: 100.0 mg/kg/injection, schedule: Q01DX009 (ip), vehicle: DMSO", "result": "148 % of control"}, {"measurement": "T/C", "setting": "T/C endpoint: median survival time, dose: 100.0 mg/kg/injection, schedule: Q01DX009 (ip), vehicle: saline, evaluated on day 30", "result": "282 and 303 % of control"}, {"measurement": "T/C", "setting": "T/C endpoint: median survival time, dose: 100.0 mg/kg/injection, schedule: Q01DX009 (ip), vehicle: saline, evaluated on day 45", "result": "314 and 337 % of control"}, {"measurement": "T/C", "setting": "T/C endpoint: median survival time, dose: 100.0 mg/kg/injection, schedule: Q01DX009 (ip), vehicle: saline, evaluated on day 60", "result": "154 and 220 % of control"}, {"measurement": "T/C", "setting": "T/C endpoint: median survival time, dose: 112.0 mg/kg/injection, schedule: Q01DX001 (ip), vehicle: DMSO", "result": "125 % of control"}, {"measurement": "T/C", "setting": "T/C endpoint: median survival time, dose: 112.5 mg/kg/injection, schedule: Q01DX001 (iv), vehicle: DMSO", "result": "137 % of control"}, {"measurement": "survivor count", "setting": "T/C endpoint: median survival time, dose: 128.0 mg/kg/injection, schedule: Q01DX005 (ip), vehicle: saline", "result": "0 of 6"}, {"measurement": "T/C", "setting": "T/C endpoint: median survival time, dose: 150.0 mg/kg/injection, schedule: Q01DX009 (ip), vehicle: saline", "result": "139 % of control"}, {"measurement": "T/C", "setting": "T/C endpoint: median survival time, dose: 200.0 mg/kg/injection, schedule: Q01DX009 (ip), vehicle: DMSO", "result": "132 % of control"}, {"measurement": "T/C", "setting": "T/C endpoint: median survival time, dose: 200.0 mg/kg/injection, schedule: Q01DX009 (ip), vehicle: saline, evaluated on day 30", "result": "301 and 375 % of control"}, {"measurement": "T/C", "setting": "T/C endpoint: median survival time, dose: 200.0 mg/kg/injection, schedule: Q01DX009 (ip), vehicle: saline, evaluated on day 60", "result": "129 [9 of 10 alive] and 154 % of control"}, {"measurement": "T/C", "setting": "T/C endpoint: median survival time, dose: 200.0 mg/kg/injection, schedule: Q01DX009 (oral), vehicle: DMSO", "result": "147 % of control"}, {"measurement": "T/C", "setting": "T/C endpoint: median survival time, dose: 225.0 mg/kg/injection, schedule: Q01DX001 (ip), vehicle: DMSO", "result": "130 % of control"}, {"measurement": "survivor count", "setting": "T/C endpoint: median survival time, dose: 256.0 mg/kg/injection, schedule: Q01DX005 (ip), vehicle: saline", "result": "0 of 6"}, {"measurement": "survivor count", "setting": "T/C endpoint: median survival time, dose: 300.0 mg/kg/injection, schedule: Q03HX024 (ip), vehicle: DMSO", "result": "10 of 10"}, {"measurement": "T/C", "setting": "T/C endpoint: median survival time, dose: 360.0 mg/kg/injection, schedule: Q01DX005 (ip), vehicle: DMSO", "result": "143 % of control"}, {"measurement": "survivor count", "setting": "T/C endpoint: median survival time, dose: 360.0 mg/kg/injection, schedule: Q01DX005 (iv), vehicle: DMSO", "result": "6 of 10"}, {"measurement": "T/C", "setting": "T/C endpoint: median survival time, dose: 400.0 mg/kg/injection, schedule: Q01DX009 (ip), vehicle: DMSO", "result": "126 % of control"}, {"measurement": "T/C", "setting": "T/C endpoint: median survival time, dose: 450.0 mg/kg/injection, schedule: Q01DX001 (ip), vehicle: DMSO", "result": "146 % of control"}, {"measurement": "T/C", "setting": "T/C endpoint: median survival time, dose: 450.0 mg/kg/injection, schedule: Q01DX001 (iv), vehicle: DMSO", "result": "147 % of control [8 of 10 alive]"}, {"measurement": "survivor count", "setting": "T/C endpoint: median survival time, dose: 450.0 mg/kg/injection, schedule: Q03HX008 (ip), vehicle: DMSO", "result": "1 of 10"}, {"measurement": "survivor count", "setting": "T/C endpoint: median survival time, dose: 512.0 mg/kg/injection, schedule: Q01DX005 (ip), vehicle: saline", "result": "0 of 6"}]}]}
